# At least one structure is not confirmed: it was looked up by name or label, or the drawing left a doubt.
# Columns and labels:
# [1] = tested on: AR protein; test: Western blotting / imaging of AR protein in PCa cells; format: cell-based, human; details: LNCaP, 22RV1, LNCaP-MDV3100-R, VCaP; Western blot
# [2] = biological target: T1, p23 (Homo sapiens, UniProt Q15185); test: ProteOn XPR36 protein interaction array (Biacore assay); format: binding; details: in vitro
# T1 construct: purchased Abeam (so in the source)
# T1 sequence (Q15185 1-160): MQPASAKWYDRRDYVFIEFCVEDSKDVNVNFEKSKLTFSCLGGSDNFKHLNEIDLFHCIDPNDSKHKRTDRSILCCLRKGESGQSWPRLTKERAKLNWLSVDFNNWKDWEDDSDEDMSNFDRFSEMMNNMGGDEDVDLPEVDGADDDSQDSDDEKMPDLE
compound,measurement,setting,value
"CC1=C(O)C(=O)C=C2C1=CC=C1[C@@]2(C)CC[C@@]2(C)[C@@H]3C[C@](C)(C(=O)O)CC[C@]3(C)CC[C@]12C [CEL, Celastrol]",AR protein level,[1],down-regulated the protein level of AR
same,interaction with p23 protein,[2],interacted with p23 protein in vitro

# — patent US10420747B2 (priority 2016, dated 2019)
